Experimental data from US10945989B2, “Perinatal treatment with a flavonoid agonist of the TrkB receptor for BDNF rescues neurogenesis and behavior in the Ts65Dn mouse model of DS” (ALMA MATER STUDIORUM—Universita' di Bologna, priority 2017, dated 2021).

Test system: Ts65Dn and euploid mice
Experiment: Morris Water Maze, learning phase
Assay type: in vivo, mouse
Description: Euploid and Ts65Dn mice received a daily subcutaneous injection (at 9-10 am) of 7,8-DHF (5.0 mg/kg in vehicle) or vehicle from postnatal day 3 (P3) to postnatal day P45-P50. […] These mice will be called here P45 mice. Mice were behaviorally tested in the 6 days that preceded the day of sacrifice (FIG. 2B).
Mice were trained in the MWM task to locate a hidden escape platform in a circular pool, using a previously used protocol (Stagni et al., 2016), that was altogether based on a published protocol (Vorhees and Williams, 2006). The apparatus consisted of a large circular water tank (1.00 m diameter, 50 cm height) with a transparent round escape platform (10 cm^2). The pool was virtually divided into four equal quadrants identified as northeast, northwest, southeast, and southwest. The tank was filled with tap water at a temperature of 22±1.0° C. Mice are more prone to undergo hypothermia than rats and in the MWM hypothermia may cause a reduction in swimming speed (livonen et al., 2003). […] For the learning phase, we evaluated the latency to find the hidden platform, time in periphery, percentage of time in periphery, path length, proximity to the platform, and swimming speed. Retention was assessed with one trial (probe trial), on the sixth day, 24 h after the last acquisition trial, using the same starting point for all mice. […]

O=c1cc(-c2ccccc2)oc2c(O)c(O)ccc12 [7,8-DHF, 7,8-dihydroxyflavone]
swimming speed (learning phase) (Ts65Dn mice, similar to euploid on days 4 and 5): reduced speed in comparison with untreated euploid mice on days 1, 2, and 3
swimming speed (learning phase) (euploid mice, similar speed on days 2-5): reduced speed in comparison with untreated euploid mice on day 1
